Test results from article PMC10163288.
The other results are listed elsewhere or left out.

B1: il10ra_site1_normal_mot_HHH_b1_06195_000000223_0001_1_19_H_._HHH_b1_03551_0001_0000100010_0000001_0 (protein)
chain: SSSSSQEYSREIYELLREAARLDSEGNPEEARKVLEEAIELAEEGGNLTLLFTLRILERLISSSS
B2: il10ra_site1_normal_mot_HHH_b1_04693_000000238_0001_19_36_H_._HHH_b2_06085_af2_0001_0000400011_0000001_0 (protein)
chain: SSSSSDQELYELIRELIELLLEGDEEKIEKLEEEIEKLAEELNNEVLLFSARAARRLQRKSSSSS
B3: il10ra_site1_sap_14_mot_HHH_b2_05343_000000235_0001_19_35_H_._HHH_b2_06220_0001_0000300034_0000001_0_0001_af2pred_0001 (protein)
chain: SSSSSSSENEEVAELLREAAQIEDKEEARKIVEEALELAEELGNKLLALIAKFVLKRLSSSSSSS
B4: il10ra_site1_normal_mot_39a7b8d0c4c3fc04bafbda6ce6101d3a_0001_1_af2_000000014_0001_34_48_H_._HHH_b1_06183_0001_0000200011_0000001_0_af2pred_0001 (protein)
chain: SSSSSDKEVAHILLEVLRLIREGDEEEAERLLEEAQRLAEEANNPELRLLVELVEAQLRSSSSSS
B5: il10ra_site1_sap_15_mot_HHH_b1_00682_000000211_0001_1_20_H_._HHH_b1_01534_0001_0000100001_0000002_0_0001 (protein)
chain: SSSSDLEERIEELEEELREALERGDMETALRLLQELLRLAFWTSDEELMHRLWRIARELASSSSS
B6: il10ra_site1_sap_19_mot_HHH_b2_00230_000000227_0001_1_19_H_._HHH_b1_00716_0001_0000100003_0000001_0_0001 (protein)
chain: SSSSSSVEELAEEAEKLAEERGDEHAKELVRAIKRLAEQGILDPEFAKLSLELLIEELRESSSSS
B7: il10ra_site1_sap_19_mot_HHH_b2_03565_000000130_0001_23_39_H_._HHH_b2_05873_0001_0000600060_0000001_0_0001_af2pred_0001 (protein)
chain: SSSSDEIAEDTARLALRAVELAGDERAKERARHLVELAIEQAKDPEVQRLLEEILERLEELSSSS
B8: il10ra_site1_normal_mot_3f97b56ee9d4307c590b2d1c156a89aa_0001_af2_000000000_0001_36_49_H_._HHH_b1_08226_af2_0001_0000400016_0000001_0 (protein)
chain: SSSSDELYEFLREVFRELDEAHRRNDPELFEEIYEEARRELEELGDEYAVALLESLFRRLSSSSS
B9: il10ra_site1_normal_mot_HHH_b2_02537_000000065_0001_1_20_H_._HHH_b1_01288_0001_0000200022_0000001_0 (protein)
chain: SSSSSTDEEFEEVKRLIKLLAEARSEEERREIEELMEELQEHVDEIFRFALEHFLRLQRSSSSSS
B10: il10ra_site1_normal_mot_HHH_b1_05056_000000217_0001_1_20_H_._HHH_b2_02194_0001_0000700035_0000001_0 (protein)
chain: SSSSSSSSVEEEVEELLEEAKHVDPEEAARLLAEALRVAYEGKNEELLKEIWEVVRELSSSSSSS
B11: il10ra_site1_normal_mot_HHH_b1_08697_af2_000000298_0001_1_18_H_._HHH_b1_07925_0001_0000300029_0000001_0_af2pred_dldesign_0_af2pred (protein)
chain: SSSSKEKIKKAIETLLDYARLAAAQGRPDEARRLLESARYLAKKAGDEDLLKEIEDLLAAISSSS
B12: il10ra_site1_sap_10_mot_HHH_b2_04057_000000065_0001_1_20_H_._HHH_b1_02339_af2_0001_0000200019_0000002_0_0001 (protein)
chain: SSSSSEEEEEIRELLEELERLLREGDREEAMKVAHRILRLIARLGNAELLELLWRLLHEWLSSSS
B13: il10ra_site1_normal_mot_HHH_b2_01310_000000089_0001_41_55_H_._HHH_b1_01638_0001_0000100004_0000001_0 (protein)
chain: SSSSDKEELEELLEELEELLHTDHEEFVEVAQEAVRHAFELGDAEVLHLLWELVQRLRELSSSSS
B14: il10ra_site1_normal_mot_HHH_b2_04912_000000028_0001_1_20_H_._HHH_b1_04441_0001_0000400046_0000001_0 (protein)
chain: SSSSDEEREELLRLIREIFRLLLRGNPEEAREVLKELEELAEQVGDEAVKKAVRILEEAASSSSS
B15: il10ra_site1_normal_mot_HHH_b2_06602_000000226_0001_1_16_H_._HHH_b1_00447_0001_0000300020_0000001_0_af2pred_0001 (protein)
chain: SSSSSEELAKRAFRLLVKAFELARKGNPEEARKVLEEAEELAEEGNDEALVRALRVLLRLLSSSS
B16: il10ra_site1_sap_24_mot_HHH_b1_00169_000000276_0001_1_18_H_._HHH_b1_05295_0001_0000200012_0000001_0_0001 (protein)
chain: SSSSDEDEEYARMALRFVEWLIEAGNPEAARSMLRAAKQVVKRLGDEEVLRLLEELQEELSSSSS
B17: il10ra_site1_sap_12_mot_HHH_b2_08172_af2_000000094_0001_41_56_H_._4d38eb9c16805ff794392fe48eb80f74_0001_0001_0000200008_0000001_0_0001 (protein)
chain: TAAFKAAQLTVKALELLQENTEEAREKVEELSEEAEELLEKIDDPRERHYVEAAIRFIENAAKGS
B18: il10ra_site1_sap_12_mot_HHH_b2_06600_af2_000000211_0001_1_16_H_._HHH_b2_03325_0001_0000300035_0000002_0_0001_af2pred_0001 (protein)
chain: SSSSSSDEEEVRELLEEAEKVPDPEERSYLLIRAFAVAAQARNPELERLVREVAHKLISSSSSSS
B19: il10ra_site1_normal_mot_HHH_b1_06789_af2_000000041_0001_1_20_H_._HHH_b2_08151_0001_0000200026_0000001_0_af2pred_0001 (protein)
chain: SSSSNEAAKWLVELALETAEIAAKNGDPEKAERALRIAKLTAELNNDEELKEEIEEVERRISSSS
B20: il10ra_site1_normal_mot_8756ee2cf497b5429c717dfc0c0bcfd6_0001_000000186_0001_1_13_H_._HHH_b1_00596_af2_0001_0000100003_0000001_1 (protein)
chain: SSSSSDESEEVAELLREVAELERDGNPEEAEEVLRQAREIAEELGNDVLRVQIEYLERQLSSSSS
B21: il10ra_site1_normal_mot_e1dd4851c59bc1cdde016f988f6856bd_0001_1_000000200_0001_16_31_H_._HHH_b2_04538_0001_0000100013_0000002_0_af2pred_0001 (protein)
chain: SSSSSESEELMRELAIRLLELARRGDEEKFEELTEEAKRLLEELNDREAVRKIEILYKLLNSSSS
B22: il10ra_site1_normal_mot_HHH_b1_00999_000000080_0001_41_55_H_._HHH_b2_07428_0001_0000100013_0000001_0 (protein)
chain: SSSSSDEEEVEKLLEKAEELAERGNPEEANRLLQRAVQIAFRAKNQELLREIWEVVRRLGSSSSS
B23: il10ra_site1_normal_mot_HHH_b1_07641_af2_000000285_0001_1_21_H_._HHH_b2_02373_0001_0000100004_0000002_0_af2pred_0001 (protein)
chain: SSSSDTREAIKLAREAAEALNKGDTEEARELLEQAREIAEEAGNLVLLVAIEFLLEEVEQLSSSS
B24: il10ra_site1_sap_15_mot_HHH_b1_05357_000000034_0001_23_39_H_._HHH_b1_07279_0001_0000600048_0000001_0_0001 (protein)
chain: SSSSSTQEVYKLLKRAIELRRDGNPEEARELLERAQEIAEEEGSRVMEVIIEFVLKVVEDSSSSS

target: il10ra, Q13651; experiment: yeast display titration

Apparent Kd, inactive:
B1 no binding seen
B2 no binding seen
B3 no binding seen
B4 > 149 nM
B5 no binding seen
B6 no binding seen
B7 no binding seen
B8 no binding seen
B9 no binding seen
B10 no binding seen
B11 no binding seen
B12 no binding seen
B13 no binding seen
B14 no binding seen
B15 no binding seen
B16 no binding seen
B17 no binding seen
B18 no binding seen
B19 no binding seen
B20 no binding seen
B21 no binding seen
B22 no binding seen
B23 no binding seen
B24 no binding seen

Not a retest: an excerpt of the list.
Apparent Kd, inactive:
B1 no binding seen
B2 no binding seen
B3 no binding seen
B4 > 149 nM
B5 no binding seen
B6 no binding seen
B7 no binding seen
